# Percent effect of library compounds

Measurements from “University of Dundee, Small-Polar-MMV Screening Library” (2021), ChEMBL document CHEMBL3988442.

A: 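Phenotypic screen: M. tuberculosis growth, glucose 7H9 medium, 3 days; the read-out is not stated. Tested at 50 µM. Direction is inferred from retests: higher values go with more growth inhibition. About 69,000 compounds were tested under these conditions; 1.1% (about 760) showed 50% or more at least once.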
B: 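Whole-cell growth test on Mycobacterium tuberculosis, read after 4 days in a medium based on cholesterol and the lipid DPPC; the read-out is not stated. Tested at 50 µM. Direction is inferred from retests: higher values go with more growth inhibition. About 69,000 compounds were tested under these conditions; 0.54% (about 370) showed 50% or more at least once.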

Each number is a percent effect as filed.
The record does not define 0% and 100%; most values in the screen are far below 50% and negative numbers occur (in some assays of this library far below -100).
The compounds are a random part of those screened.
Two or more numbers in one place are separate tests of the same structure; such repeats can differ widely.

| compound | A | B |
|---|---|---|
| `CCN1CCOC(CNc2nccc(OC)n2)C1` (stereo unspecified) | -5.374 | 5.795 |
| `CS(=O)(=O)CCCNCc1c(Cl)cccc1N1CCCC1` | -4.857 & 11.05 | -0.9116 |
| `CCOC(=O)CN1CCC2(CC1)CC(=O)c1ccc(OC)cc1O2` | 15.26 | -0.01179 |
| `CCc1nc(CNC(C)Cn2cccn2)cs1` (stereo unspecified) | 20.67 | 13.86 |
| `O=C(O)C(F)(F)F.O=C(O)C(F)(F)F.c1cnc(N2CCC3(CCN(CC4CC4)CC3)CC2)nc1` | -15.31 | -20.43 |
| `O=C(NCCc1ccccn1)C1CC(=O)N(CC(F)(F)F)C1` (stereo unspecified) | 7.193 | -18 |
| `CN(CCCc1ccccc1)C(=O)CCc1nc(-c2nnc[nH]2)no1` | 2.328 | 8.058 |
| `N#Cc1ccnc(N2CCN(CC(O)c3ccc(F)cc3F)CC2)c1` (stereo unspecified) | 12.55 | -6.124 |
| `CCn1ccc(NC(=O)CN2C(=O)CC(C)(C)c3ccccc32)n1` | 17.51 | -11.58 |
| `CC(=O)c1cccc(NS(=O)(=O)c2cc(C)c(C(=O)O)s2)c1` | 6.604 & 5.719 | 15.78 |
| `Cc1cnc2c(c1NCc1cccnc1)c(=O)n(C)c(=O)n2C` | -39.71 | -34.1 |
| `CCNC(=O)CNC(=O)c1nc(C2CC2)n(-c2ccccc2Cl)n1` | -25.48 & -3.285 | -32.63 |
| `COCC(NC(=O)c1cnn(C)c1)c1cccc(C(F)(F)F)c1` (stereo unspecified) | -7.541 & 0.6576 | -25.62 |
| `CN(C)C(=O)CN1CCC2(CCCN(Cc3ccsc3)C2)C1=O` (stereo unspecified) | -24.62 | 8.305 & -13.24 |
| `O=C(CSc1ccccc1)N1CCc2c(ncnc2N2CCOCC2)C1` | 3.195 | -6.418 |
| `Cn1[nH]c(Br)c2/c(=N\CCN)ncnc1-2` | 22.19 | -4.445 |
| `Cc1n[nH]c(C)c1C1CCCN1C(=O)Cc1cccc(F)c1` (stereo unspecified) | -9.666 | 4.152 |
| `CCCN(Cc1nc(-c2ccoc2)oc1C)CC1CCCO1` (stereo unspecified) | -4.126 | 15.75 |
| `Cc1cc(C)nc(Nc2nccnc2C2CCCN(C(CO)CO)C2)n1` (stereo unspecified) | -11.2 | -1.255 & -10.58 |
| `Cc1cc(C[C@@H]2CCC[C@H]2NCc2ccc(C(F)(F)F)cc2)on1.O=C(O)CC(O)(CC(=O)O)C(=O)O` | 35.67 | 29.46 |
| `CC(=O)N1CCCC(c2ccccn2)C1` (stereo unspecified) | -33.15 | -5.024 |
| `CCc1nc(C2CCCN2C(=O)c2ccc3c(c2)[nH]c(=O)n3C)no1` (stereo unspecified) | 11.4 | 12.24 |
| `CCC(C)(CC)NC(=O)COc1nn(C)c2nc(C)cc(C)c12` | -24.59 & 13.11 | 22.47 |
| `[H][C@@]12CN(C(=O)c3ccoc3COc3ccc(C)cc3)C[C@]1([H])[C@H]2CN(C)C` | -13.04 | 0.7795 |
| `Cc1cc(C)n(CC2CCCN2C(=O)c2cccnc2N(C)C)n1` (stereo unspecified) | 13.71 | 18.16 |
| `Cc1cc(N2CCC(c3n[nH]c4nccnc34)CC2)ncn1` | -14.73 | -28.27 |
| `CC(=O)N1CCCC2(CCN(Cc3ccc(Cl)c(C(F)(F)F)c3)C2)C1` (stereo unspecified) | -0.04883 & 6.035 | 2.762 |
| `CCCc1cc(N2CCC(N[C@H]3CC[C@H](O)CC3)CC2)nc(C)n1` | -5.113 & 42.61 | 13.07 |
| `CC1=C[C@@H](CN2CCN(C)CC2)[C@H](C(C)C)C[C@H]1Cc1nnc(C)o1` | 15.21 & 13.98 | -1.04 |
| `O=C(Nc1ccc2c(ccn2CCN2CCOCC2)c1)c1ccccn1` | -19.45 | -9.858 |
| `O=C(O)C(F)(F)F.[H][C@]12CC[C@@]3(N=C(C)N(CCOC)C3=O)[C@@]1([H])CN(Cc1ccccc1F)C2` | -21.48 | -10.98 & -9.557 |
| `COCCNc1nc2c(c(NCCc3cccs3)n1)CCNCC2` | 51.03 | 14.79 & 21.22 |
| `c1nc(N2CCCCC2Cn2cncn2)c2sccc2n1` (stereo unspecified) | 7.047 | -8.487 |
| `CCCc1cc(=O)[nH]c(-n2nc(C3CC3)cc2N)n1` | 93.23 | 66.33 |
| `O=C(O)C(F)(F)F.[H][C@@]12CCCO[C@]1([H])[C@@H](OCC1CCOCC1)CN2Cc1ccccc1F` | -7.775 & -3.631 | -16.51 |
| `Cn1ccc(C(=O)N2CCC3(CCC(=O)N(C4CCCC4)C3)CC2)n1` | -77.89 | -0.1049 & -13.24 |
| `FC(F)(F)Cn1cc(NCc2cscn2)cn1` | -3.787 | 35.52 |
| `COCc1nnc(C(=O)N2CCCC(O)C2)o1` (stereo unspecified) | 2.959 | 5.584 & -7.535 |
| `Cc1ccc2c(c1)C1(CC2)CCN(c2nncs2)CC1` | 9.771 | -15.05 |
| `COc1ccc2c(c1)C(=O)NC1(CC2)CCN(Cc2ccc(F)cc2)C1` (stereo unspecified) | -21.4 | -16.66 & -3.956 |
| `CC(NC(=O)Nc1cccnc1N1CCCC1)c1nncn1C` (stereo unspecified) | 3.149 | -8.521 |
| `CCNC(=O)NC1CCN(c2ccc(S(=O)(=O)CC)cc2)CC1` | 4.379 | -1.824 |
| `CNC(=O)C1CCN(c2cc(C3CCNCC3)nc(C)n2)C1` (stereo unspecified) | -1.554 & -11.19 | -8.169 & -13.95 |
| `O=C(O)C(F)(F)F.[H][C@@]12CN(Cc3ccc(OC)cc3)C[C@]1([H])C(=O)N(c1cncnc1)C2` | -1.73 & -0.1274 | -1.639 |
| `OCC1CCCN1c1cc(NCc2cc3ccccc3o2)ncn1` (stereo unspecified) | 14.3 | 28.5 |
| `O=C(CCc1ccncc1)N1CCc2cc(Cl)cc(Cl)c2C1` | 51.04 | 20.14 |
| `CCOc1ccccc1C(=O)N1CCCC(O)(CN(C)C)C1` (stereo unspecified) | -46.73 & -2.23 | -34.98 |
| `O=C(N1CCC(Oc2ccncc2)C1)C1(c2ccccc2F)CC1` (stereo unspecified) | 1.932 | 2.634 |
| `[H][C@]12CC[C@]([H])(CN(C3Cc4ccccc4C3)C1)N(C(=O)CSC)C2` | 0.865 & -16.42 | 2.668 |
| `COc1ccccc1S(=O)(=O)Nc1cnc(O)cc1C` | 2.305 | 5.324 |
| `Cc1ccsc1-c1nc(CN(C)Cc2noc(C(C)C)n2)c(C)o1` | 20.39 | 21.5 & -5.214 |
| `CNC(=O)CN(C)c1cncc(OCC(C)C)n1` | -8.179 & 6.516 | 1.899 |
| `Cc1ccsc1[C@@H]1CCN(C(=O)CCC(=O)c2ccccc2)C[C@H]1O` | -23.2 & 1.884 | -24.74 |
| `[H][C@@]12CS(=O)(=O)C[C@]1([H])N(Cc1ccc(OC)c(F)c1)CCN2C(=O)N(C)C` | -32.39 | -33.79 |
| `Cc1cnn(C2CCCN(C(=O)c3cn(-c4ccccc4)nc3C)C2)c1` (stereo unspecified) | -0.5168 | 6.647 |
| `NCc1cnn(-c2ccccc2C(=O)NCCCn2ccnc2)c1` | 5.998 | -3.952 |
| `[H][C@@]12CN(Cc3ccccc3C)CC[C@]1([H])N(C(C)=O)C[C@H]2c1ccsc1` | -27.03 | -14.84 |
| `C[C@@H](NC(=O)c1ccc(Cl)cc1)c1onc(-c2cccnc2)c1C(=O)O.Cl` | 2.924 & 15.15 | -2.145 |
| `COCCCN1CCCN(C(C)c2nc(C3CC3)no2)CC1` (stereo unspecified) | 32.82 | -0.8616 |
| `CCOc1ncccc1C(=O)N1CCCC1c1c(C)nn(C)c1OC` (stereo unspecified) | 9.797 | -6.485 |
| `COc1nc2c(cc1C(=O)NCc1noc(-c3ccco3)n1)CCC2` | 9.015 & -6.581 | -0.8273 |
| `Cc1ccc(CNC(=O)NCCCn2nc3ccccn3c2=O)s1` | 16.73 | -4.553 |
| `Cc1[nH]c2ccccc2c1CCNc1ncnc2c1CCNCC2` | 35.14 | 11.24 |
| `Cc1ccc(C(=O)N2CCC3(CC(N(C)c4ccncn4)C3)C2)cn1` (stereo unspecified) | 22.92 | -6.55 |
| `CC(NC(=O)NCCN1CCCCCC1=O)c1nncn1C` (stereo unspecified) | 29.9 | -4.018 |
| `CCCc1nc(NCc2c(C)nn(CCC)c2C)c2cnn(C)c2n1` | 16.09 & 7.503 | 15.87 |
| `[H][C@]12CCC[C@@]1(COCC)CN(C(=O)COc1ccccc1OC)C2` | -4.975 | 7.309 |
| `CCOc1cc(F)ccc1NC(=O)N(C(C)CS(C)(=O)=O)C1CC1` (stereo unspecified) | 20.05 | 12.31 |
| `Cc1ccc2c(n1)N(CCn1cccn1)CCN(C(=O)NC1CC1)C2.O=C(O)C(F)(F)F` | 12.77 | -12.15 |
| `Cn1cc(CNc2ccc(CCO)cc2)c(-c2ccncc2)n1` | -31.94 | -34.39 |
| `Cc1noc2ncnc(NC(CC(C)(C)C)c3cccnc3)c12` (stereo unspecified) | -1.541 & 4.327 | 1.263 |
| `Cc1nc(NC(=O)C2CCCN(C(=O)C3CC3)C2)sc1C` (stereo unspecified) | 4.57 & 13.58 | 13.05 |
| `O=C1NCC(C(=O)Nc2ncc(Cc3ccccc3)s2)N1` (stereo unspecified) | -13.49 | -20.03 |
| `CN(C(=O)Cc1coc(-c2ccccc2)n1)C1(C#N)CCC1` | -1.799 | 11.48 |
| `CCc1cc(NCCS(=O)(=O)N(C)C)nc(N2CCOCC2)n1` | 29.53 | 7.791 |
| `Cc1ccc(NC2CCN(C(=O)c3ccc(F)cc3Cl)CC2)nn1` | -6.704 | -10.22 |
| `O=C(CC1CCc2ccccc21)NCCSc1cnn[nH]1` (stereo unspecified) | -28.19 | -5.143 |
| `[H][C@@]12CCN(Cc3c(C)noc3C)C[C@]1(C(=O)NC)CCO2` | -16.38 | -12.21 |

The first 4 entries again:

| compound | A | B |
|---|---|---|
| `CCN1CCOC(CNc2nccc(OC)n2)C1` (stereo unspecified) | -5.374 | 5.795 |
| `CS(=O)(=O)CCCNCc1c(Cl)cccc1N1CCCC1` | -4.857 & 11.05 | -0.9116 |
| `CCOC(=O)CN1CCC2(CC1)CC(=O)c1ccc(OC)cc1O2` | 15.26 | -0.01179 |
| `CCc1nc(CNC(C)Cn2cccn2)cs1` (stereo unspecified) | 20.67 | 13.86 |